Some of the results follow.
B1: il2ra_site1_2b5i_sap_20_mot_HHH_b1_06515_af2_000000249_0001_1_17_H_._HHH_b1_03551_af2_0001_0000500037_0000001_0_0001 (protein)
chain: SSSDEEELAHIAAEIVARLFYRFGLSAEQSQELDRVASELAEEGVSPEEVEEILRRVAEELSSSS
B2: il2ra_site1_2b5i_sap_18_mot_098064ffb003ae9d220488cec4d80c2b_0001_af2_000000106_0001_17_32_H_._HEEHE_2699_0001_0000100017_0000001_1_0001_af2pred_dldesign_0_af2p … (protein)
chain: SSSSSSDEAERLFEEAKRLKAAGKRREALEALERAAKLADAAGREDLRDEIEAFAKTVSSSSSSS
B3: il2ra_site2_3nfp_sap_17_mot_HHH_b2_07946_000000046_0001_20_36_H_._HHH_b2_06724_0001_0001200050_0000001_0_0001 (protein)
chain: SSSSSEVLEELERMIELAIQSARSLGDPEVEEKLEELLERLREEGDPRAALEAYELAARAYSSSS
B4: il2ra_site2_2erj_sap_34_mot_720936397f2d31669eff21710c18a4fc_0001_000000071_0001_37_51_H_._HHH_b1_04472_0001_0000300015_0000001_0_0001 (protein)
chain: SSSSSDDNSKAALKFLEERVEEAPDEEAARAAAELALRFAKLAGDEELERLIEELLEELRSSSSS
B5: il2ra_site2_3nfp_normal_mot_HHH_b1_00660_af2_000000090_0001_40_57_H_._HHH_b2_06268_af2_0001_0000300014_0000001_0 (protein)
chain: SSSSDEEEEQVEKLYEEAKRLLEEGDPFRAFAVLSDARELAARLGNEELAQKLARLAAEIYSSSS
B6: il2ra_site2_2erj_normal_mot_HHH_b2_02430_000000062_0001_23_40_H_._HHH_b1_00942_af2_0001_0000400038_0000001_0 (protein)
chain: SSSSNEELHELFRLAAKLAELVYRGDEEQFEKVFRELEELIEKLNSENAKEVLEWLREHLHSSSS
B7: il2ra_site2_3nfp_sap_17_mot_HHH_b1_06677_000000111_0001_20_36_H_._036bed11a46af16b1bcff1c055f4941a_0001_af2_0001_0000400013_0000001_0_0001 (protein)
chain: DEEKELEEKAKEAVEKQDPELAFEVTREAALDPEAWEELLRVLEELNNALELYRLAAEYYKKRVS
B8: il2ra_site2_2erj_normal_mot_HHH_b1_05749_af2_000000058_0001_23_39_H_._HHH_b1_03571_af2_0001_0000100007_0000001_0 (protein)
chain: SSSSDEELRELFELAVRILALIARGNPEEAERLLKELKELAEETNSENVKELVEFLEERLRSSSS
B9: il2ra_site2_2erj_sap_11_mot_HHH_b2_06236_000000050_0001_39_52_H_._HHH_b2_02704_0001_0000200013_0000001_0_0001 (protein)
chain: SSSSDEASRISVEAFRRARELFKRGNPEEAREILEEAIRLLEELGDEDAAKTLESLLKLLSSSSS
B10: il2ra_site1_1z92_normal_mot_HHH_b1_05118_af2_000000199_0001_39_52_H_._HHH_b1_04212_af2_0001_0000200012_0000001_0_af2pred_0001_af2pred (protein)
chain: SSSSSDEQELFEEVAELFEEAAKIRDQEERKRLLEEALELARQANNPLLEELVERMLKALSSSSS
B11: il2ra_site2_2erj_sap_15_mot_HHH_b1_01239_000000175_0001_43_57_H_._HHH_b1_06544_0001_0000200010_0000001_0_0001 (protein)
chain: SSSSSDRLREAYRLAVEVMHLLARGDEEEAERLAEEVQRLLEELGTPEAAEMLRELLRILSSSSS
B12: il2ra_site1_2b5i_sap_13_mot_9a773f325bc24391a11cd301277c1e75_0001_1_000000041_0001_1_15_H_._06d6c94188ba5cb0f575164e5db69022_0001_0001_0000300013_0000001_0_0001 … (protein)
chain: SSSSSEIEDEIYDLYKEALAAKRAGKHEEAKKLLEEAIKLAKEANDEKLVAELERFLTLLSSSSS
B13: il2ra_site1_2b5i_sap_25_mot_0e5a94e4a5addaac739760efb25f0f5d_0001_000000246_0001_18_32_H_._HHH_b2_02129_0001_0000200019_0000001_0_0001_af2pred_dldesign_0_af2pre … (protein)
chain: SSSSMSPRELARALFERARALLEAKEDPLLARRLALLARRIARRAGDEELVAEIDALLERLSSSS
B14: il2ra_site1_1z92_sap_19_mot_ems_3hM_2358_af2_000000278_0001_1_21_H_._HHH_b2_00289_af2_0001_0000400016_0000001_0_0001_af2pred_0001_af2pred_1_swapped (protein)
chain: SSSSSEEEKEAEKIVEELVEEFGLDEEAKEALRLDAERALENGISPKSIRRALEDAARRTSSSSS
B15: il2ra_site1_1z92_sap_23_mot_HHH_b1_05862_af2_000000270_0001_22_38_H_._HHH_b1_00476_0001_0000100006_0000001_0_0001 (protein)
chain: SSSSSAREYIEEMARALFRTIEAKGNPRAREMLEWLLRQARILGDEELRRLIEELLEELRSSSSS
B16: il2ra_site2_2erj_sap_26_mot_HHH_b1_04859_000000124_0001_24_41_H_._dd4073a288970bb258a5370782f75e7e_0001_1_0001_0002300117_0000001_0_0001 (protein)
chain: SSSDKEEAEELYEKARELLERGNPEEALRVLREAATLAFESGDEELFRKLDELAHEIARAGSSSS
B17: il2ra_site1_2b5i_normal_mot_2cbe48e66a1f39b3fed734b245ab0a04_0001_000000015_0001_17_31_H_._HHH_b2_02110_0001_0000200009_0000001_0_af2pred_dldesign_0_af2pred (protein)
chain: SSSSSSDPRARVRALLEKAETLKDEVEKHKVLSEALYLARATGDEALLAEVERKAAELSSSSSSS
B18: il2ra_site1_1z92_sap_15_mot_HHH_b1_06078_000000124_0001_1_18_H_._HHH_b1_06833_af2_0001_0000100001_0000001_0_0001 (protein)
chain: DEELEELLERVEKGDPEAREELLELLSKLMGSPPEAVEADLERTERFFGDPSQALKALIQIARKL
B19: il2ra_site1_1z92_sap_29_mot_HHH_b1_08133_000000119_0001_1_19_H_._HHH_b2_01664_0001_0000100002_0000001_0_0001 (protein)
chain: SSSSSTERAIRWALELLRAAERLNNEEQQEFLVRDARMLAERSNNPEARKLVEEMEELLGSSSSS
B20: il2ra_site2_3nfp_sap_16_mot_HHH_b2_02942_af2_000000138_0001_1_15_H_._ems_p1-15H-GBL-16H-GBL-14H_0089_0001_0001_0001_0001_0000300013_0000001_0_0001 (protein)
chain: SSSSDRELAEEVIESARTALELGNPEKARLALELARAHALLLGDEELREEIEKLLREVEELSSSS
B21: il2ra_site2_2erj_sap_35_mot_HHH_b1_08609_af2_000000264_0001_43_56_H_._3ee87299db9bf54915f2e612e5595e5c_0001_1_0001_0000100002_0000001_0_0001_af2pred_0001_1_af2p … (protein)
chain: SSSSDHEEELRLASARNAAEIALEEGDEEEARLLLELFLELLEELGDEEILEELEEFLRRISSSS
B22: il2ra_site2_2erj_normal_mot_6bd1339e93f6fdda22195c76da45ec5d_0001_000000136_0001_37_51_H_._HHH_b2_01001_0001_0000200004_0000001_0 (protein)
chain: SSSSSDEVEERVEELLEEARQIDDPAERYSVLSEAAELALENDDEEALRLIREVFAELAQSSSSS
B23: il2ra_site1_3nfp_normal_mot_HHH_b1_01231_af2_000000170_0001_1_16_H_._HHH_b1_07288_0001_0000400014_0000001_0 (protein)
chain: SSSSTERVRELIQKALRLAYEGNLEEAREVLREAEELARELNDESLERFLELLEKAIELHSSSSS
B24: il2ra_site1_3nfp_sap_15_mot_HHH_b1_01643_af2_000000062_0001_1_20_H_._HHH_b1_06862_0001_0000400010_0000001_0_0001_af2pred_0001_af2pred (protein)
chain: SSSSTELARRVDELIKLASEALQEGDKEEFKRILEELEEIAEEANDPAIRWAVEALRKAFSSSSS
B25: il2ra_site1_1z92_normal_mot_HHH_b1_02810_af2_000000169_0001_43_57_H_._HHH_b1_03082_af2_0001_0000300010_0000001_0_af2pred_0001_af2pred (protein)
chain: SSSSSEELEELLEEVKELLEQARENGDERLARELEFLLRVAEKQHNPRIARYAIEAARSFSSSSS
B26: il2ra_site2_3nfp_normal_mot_HHH_b1_07242_000000112_0001_19_39_H_._ems_3hM_250_0001_0000500009_0000001_0 (protein)
chain: SNEELERYIEAALRLAKEAARDPRIQEEIEEVLKEFEEAKEKNDEHALAEVAHLALELAELAARS
B27: il2ra_site2_2erj_normal_mot_HHH_b2_01204_af2_000000056_0001_19_34_H_._HHH_b2_02030_0001_0000300005_0000001_0 (protein)
chain: SSSSSDEEEVQELLERAEKSDDLREIYELLVRALHIASKTNNDELQRLITEVAERIARGSSSSSS
B28: il2ra_site2_2erj_normal_mot_HHH_b1_01239_000000175_0001_43_57_H_._HHH_b1_01477_0001_0000100001_0000001_0_1_af2pred_0001_af2pred (protein)
chain: SSSSSDREEVEEEVRELLEEAERIPDQREALKLLQKAARLAEEIGDPELHELVLEVARRLSSSSS
B29: il2ra_site2_2erj_normal_mot_43ff22814c79cc0f844b9f0307205ae1_0001_000000293_0001_18_33_H_._HHH_b1_01756_0001_0000900011_0000001_1 (protein)
chain: SSSSSSDIEEEVLELIAKAAHIKDEEEARKVLEEALEVAEEGNDPLLARFVELSLEDQSSSSSSS
B30: il2ra_site1_1z92_normal_mot_HHH_b2_05238_af2_000000252_0001_38_55_H_._HHH_b1_08154_af2_0001_0000200002_0000001_1 (protein)
chain: SSSSSEEEAAQILIQAAERAIKAGDKRSAERFIEFLERQVEDEGDEELEKIVEELKELLKSSSSS
B31: il2ra_site2_2erj_normal_mot_HHH_b2_04303_af2_000000294_0001_21_38_H_._HHH_b1_01657_0001_0000200007_0000001_0 (protein)
chain: SSSSDLEERIRELLEQIEELLERGNPEEAEKLVSEAFELAYEANDPRLAALVIELAHLIFSSSSS
B32: il2ra_site1_2b5i_normal_mot_HHH_b2_04910_000000118_0001_1_19_H_._HHH_b1_03439_af2_0001_0000500027_0000001_0_af2pred_dldesign_0_af2pred (protein)
chain: SSSSSATAEALKLFLEADKLYQAGKEEEAKKKLEEALKKARAGGSTALEKMIESALKQLELSSSS
B33: il2ra_site2_3nfp_normal_mot_HHH_b2_05281_000000198_0001_39_56_H_._HHH_b1_04885_0001_0000100005_0000001_0 (protein)
chain: SSSSSKEEIEELLEELRRLVEEGDEERFEELAALVTHLAFELRDPRLFFLVAELAYLFRQSSSSS
B34: il2ra_site1_1z92_sap_20_mot_HHH_b2_02761_000000226_0001_1_18_H_._HHH_b1_00430_af2_0001_0000400036_0000001_0_0001_af2pred_0001_af2pred_1 (protein)
chain: SSSSDEEREREVTRIVLEVAEEFHLNAREEAELFRLAYKLLKRGYSEEEIKEILQELAHKSSSSS
B35: il2ra_site2_3nfp_normal_mot_HHH_b2_01155_000000159_0001_38_52_H_._HHH_b2_07590_0001_0000200017_0000001_0 (protein)
chain: SSSSSEVEREVEELLKEAERLLEEGDPHRAFYLLAEAALLVWQNENEELRKLVEHLAERIYSSSS
B36: il2ra_site1_3nfp_normal_mot_HHH_b1_01976_000000194_0001_43_56_H_._HHH_b2_06271_0001_0000100001_0000001_0 (protein)
chain: SSSSSEEQEFLREVLEALEKLTKVDPEEARELLEEARRLAEELNDPRLRHDVEFYAKQVRSSSSS
B37: il2ra_site1_1z92_normal_mot_HHH_b2_04375_000000267_0001_42_56_H_._a7d4ab743ae57deeac5d741f7278d18b_0001_0001_0000200031_0000001_0_af2pred_0001_af2pred_1 (protein)
chain: SEEELEELAKELGVPPEEVEVVLRELRRAEELGIPPEKVLRALIRAAERSGNPKLAEVLQELLER

What follows are binders tested against il2ra, P01589 (assay: yeast display titration).

Apparent Kd, inactive:
B1 no binding seen
B2 no binding seen
B3 no binding seen
B4 no binding seen
B5 no binding seen
B6 no binding seen
B7 no binding seen
B8 no binding seen
B9 no binding seen
B10 no binding seen
B11 no binding seen
B12 no binding seen
B13 no binding seen
B14 no binding seen
B15 no binding seen
B16 no binding seen
B17 no binding seen
B18 no binding seen
B19 no binding seen
B20 no binding seen
B21 no binding seen
B22 no binding seen
B23 no binding seen
B24 no binding seen
B25 no binding seen
B26 no binding seen
B27 no binding seen
B28 no binding seen
B29 no binding seen
B30 no binding seen
B31 no binding seen
B32 no binding seen
B33 no binding seen
B34 no binding seen
B35 no binding seen
B36 no binding seen
B37 no binding seen

Fetched one by one from the entries so far (3):
Apparent Kd, inactive:
B7 no binding seen
B5 no binding seen
B14 no binding seen

Reference: PMC10163288
